We go through one sequence from PMC8464063, “The bacterial iron sensor IdeR recognizes its DNA targets by indirect readout”.

The target of this data set is T1, IdeR WT (Saccharopolyspora erythraea DSM 40517) (UniProt A0ABF7PL34).
T1 sequence (looked up): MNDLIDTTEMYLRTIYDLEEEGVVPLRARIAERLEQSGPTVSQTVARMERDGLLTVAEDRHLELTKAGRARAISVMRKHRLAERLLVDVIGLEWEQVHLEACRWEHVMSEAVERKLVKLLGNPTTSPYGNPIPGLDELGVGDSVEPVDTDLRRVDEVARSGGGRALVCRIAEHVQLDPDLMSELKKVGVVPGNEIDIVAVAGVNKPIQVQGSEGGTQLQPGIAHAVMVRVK
In words: EMSA. Particulars: Mn2+ titration, binding from 15 uM, less efficient than Co2+/Fe2+, 750 nM dimer; EMSA: 15 mM Tris-acetate pH 7.3, 4 mM K-acetate, 10% glycerol, 17 ng/ul poly(dI-dC), 30 nM DNA, 30 uM Co2+, IdeR 15 nM-2.25 uM dimer, 20 min room temperature; recombinant protein; residues 1-231; label: 5' FAM on strand 1.

For at least one entry, the source does not settle the construct or the ends of the probe. A weaker result is weaker than the reference pair of the same experiment. Tags and fusion partners may be left off the protein sequences shown.

In the case of “CGTACTTTGGTAAAGCTAACCTAAGTCACC (double strand) [C10S1]”, the binding result is given as “binds more weakly”.
